# From US20190225680A1 (NASCIENT, published 2019)
# Positions count from the first letter of the chain named. Results are given in words; binding and its absence hold for the method and conditions named. Some binding calls cover weakened binding; strength is not graded here. Where a sequence is shown, tags or fusion partners need not be part of it.
# T1: mouse TNC rCd4-His-FBG (rat; mouse, UniProt P05540 207-386)
# T1 construct: domain: domains 3 and 4; also called Mu TNC; mouse TNC FBG
# T1 sequence: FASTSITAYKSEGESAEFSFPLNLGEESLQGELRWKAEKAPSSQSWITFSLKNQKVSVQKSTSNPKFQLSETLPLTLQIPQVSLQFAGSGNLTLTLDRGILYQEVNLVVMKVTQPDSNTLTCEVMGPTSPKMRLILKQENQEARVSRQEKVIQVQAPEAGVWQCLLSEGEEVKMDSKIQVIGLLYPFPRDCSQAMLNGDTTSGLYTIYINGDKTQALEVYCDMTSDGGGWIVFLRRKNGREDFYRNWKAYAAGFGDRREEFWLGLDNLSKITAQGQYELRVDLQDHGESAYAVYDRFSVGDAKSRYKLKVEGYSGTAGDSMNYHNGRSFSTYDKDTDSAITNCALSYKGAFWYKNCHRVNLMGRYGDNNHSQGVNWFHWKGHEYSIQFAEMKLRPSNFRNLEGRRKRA
# T2: rat TNC rCd4-His-FBG (rat) (UniProt P05540)
# T2 sequence: T1 sequence with A252T
# B1: 165_13_D1 scFv (scFv, V domains shown)
# VH: QVQLVESGGGLVQPGRSLRLSCAASGFTFDDYAMHWVRQAPGKGLEWVSGISGSGGSTYYADSVKGRFTISRDNAKNSLYLQMNSLRAEDTALYYCAKGTRGEGDTFDIWGQGTMVTVSS
# VL: DIQMTQSPASLPTPVGDRVTITCRASQYIQGFLNWYQQKPGKAPKLLIYDASNLETGVPSRFSGSGSGTDFTLTISSLQPEDFATYYCQQSYSTPQTFGQGTKVDIK
# notes: VH CDR3 GTRGEGDTFDI; not shown: scFv linker, domain order, and the tags of the pSANG10 vector (FLAG and others)
# B2: 165_13_B3 scFv (scFv, V domains shown, not shown: small tags and cut ends)
# VH: B1 VH with G99A, T100L, R101A, G102R, E103G, G104H
# VL: B1 VL
# notes: VH CDR3 ALARGHDTFDI
# B3: 165_13_C3 scFv (scFv, V domains shown)
# VH: B1 VH with G99S, T100Y, R101Q, G102S, E103D, G104E, T106A
# VL: B1 VL
# notes: VH CDR3 SYQSDEDAFDI; Antibody C3 of the B12 family; not shown: scFv linker, domain order, and the tags of the pSANG10 vector (FLAG and others)
# B4: 165_13_B1 scFv (scFv, V domains shown)
# VH: B1 VH with G99V, T100M, R101S, G102S, E103M, G104E, T106A
# VL: B1 VL
# notes: VH CDR3 VMSSMEDAFDI; not shown: scFv linker, domain order, and the tags of the pSANG10 vector (FLAG and others)
# B5: 180_11_F5 scFv (scFv, V domains shown, not shown: small tags and cut ends)
# VH: B1 VH with G99V, T100M, G102T, E103G, G104L
# VL: B1 VL
# notes: VH CDR3 VMRTGLDTFDI
# B6: 165_13_A4 scFv (scFv, V domains shown)
# VH: B1 VH with G99D, T100K, R101Y, G102P, E103V, G104L
# VL: B1 VL
# notes: VH CDR3 DKYPVLDTFDI; not shown: scFv linker, domain order, and the tags of the pSANG10 vector (FLAG and others)
# B7: 165_13_B6 scFv (scFv, V domains shown)
# VH: B1 VH with T100Q, R101K
# VL: B1 VL
# notes: VH CDR3 GQKGEGDTFDI; not shown: scFv linker, domain order, and the tags of the pSANG10 vector (FLAG and others)
# B8: 165_13_D4 scFv (scFv, V domains shown)
# VH: B1 VH with R101V
# VL: B1 VL
# notes: VH CDR3 GTVGEGDTFDI; not shown: scFv linker, domain order, and the tags of the pSANG10 vector (FLAG and others)
# B9: B12 Fab (Fab, V domains shown)
# VH: B1 VH with G99D, T100I, R101S, G102A, E103V, G104P
# VL: DIQMTQSPASLPTPVGDRVTITCRASQYIQGFLNWYQQKPGKAPKLLIYDASNLETGVPSRFSGSGSGTDFTLTISSLQPEDFATYYCQQSYSTPQTFGQGTKVDIKR
# notes: Monomeric Fab from a dual promoter Fab vector; also called B12 parental antibody
# B10: 165_13_B1 IgG4 (antibody, V domains shown)
# VH: B1 VH with G99V, T100M, R101S, G102S, E103M, G104E, T106A
# VL: B9 VL
# B11: 165_13_D1 IgG4 (antibody, V domains shown)
# VH: B1 VH
# VL: B9 VL
# Target: T1, mouse TNC rCd4-His-FBG
# Test: ELISA and HTRF screens of scFv
row,binding,Binder
1,binds,B1
2,binds,B2
3,binds,B3
4,binds,B4
5,binds,B5
6,binds,B6
7,binds,B7
8,binds,B8

# Target: T2, rat TNC rCd4-His-FBG (rat)
# Test: SPR, BIAcore T100, 25 C, Fab captured, rCd4-FBG injected
row,binding,Binder
1,binds,B9

# Target: T1, mouse TNC rCd4-His-FBG
# Test: as above
row,binding,Binder
1,binds,B9

# Target: T1, mouse TNC rCd4-His-FBG
# Test: SPR, 37 C, purified IgG4 captured on anti-human Fc
row,binding,Binder
1,binds,B10
2,binds,B11

# Target: T1, mouse TNC rCd4-His-FBG
# Test: ELISA (mouse) and HTRF (human) screens of scFv
row,binding,Binder
1,binds,B1
2,binds,B2
3,binds,B3
4,binds,B4
5,binds,B5
6,binds,B6
7,binds,B7
8,binds,B8
